Source: article PMC9044032, “OsbZIP47 Is an Integrator for Meristem Regulators During Rice Plant Growth and Development” (Frontiers in Plant Science, 2022)
These are yes or no findings as the source states them, for the method shown. Binding can be weak; no strength is given. Sequences can lack the tags named with a protein.

Biological target: T1, OsbZIP47ΔC (C-terminal truncated OsbZIP47 lacking 186-385 amino acids), Gal4 BD fusion (rice (Oryza sativa)) (UniProt Q5Z6N9)
T1 sequence: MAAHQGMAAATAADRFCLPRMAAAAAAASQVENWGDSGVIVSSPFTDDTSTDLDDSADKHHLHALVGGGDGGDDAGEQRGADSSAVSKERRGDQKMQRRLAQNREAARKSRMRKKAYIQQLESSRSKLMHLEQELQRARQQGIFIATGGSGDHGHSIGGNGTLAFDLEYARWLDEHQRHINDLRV
Experiment: two-hybrid; Gal4 BD-OsbZIP47ΔC as bait (pGBDUC1), preys fused to GAL4 AD (pGADC1), yeast pJ69-4A; serial dilution spotting on SD/-Leu-Ura-His + 10 mM 3AT, growth after five days at 30°C; ONPG / X-gal quantitative assay

Substance | binding
OsETTIN1, GAL4 AD fusion (rice (Oryza sativa)) | no binding
OsETTIN2, GAL4 AD fusion (rice (Oryza sativa)) | no binding
OsMADS1 (MIKC14 domain), GAL4 AD fusion (rice (Oryza sativa)) (domain or fragment) | binds
